For test [1], the target named is T1, mouse TNC rCd4-His-FBG (rat; mouse, UniProt P05540 207-386).
T1 construct: domain: domains 3 and 4; also called Mu TNC; mouse TNC FBG
T1 sequence: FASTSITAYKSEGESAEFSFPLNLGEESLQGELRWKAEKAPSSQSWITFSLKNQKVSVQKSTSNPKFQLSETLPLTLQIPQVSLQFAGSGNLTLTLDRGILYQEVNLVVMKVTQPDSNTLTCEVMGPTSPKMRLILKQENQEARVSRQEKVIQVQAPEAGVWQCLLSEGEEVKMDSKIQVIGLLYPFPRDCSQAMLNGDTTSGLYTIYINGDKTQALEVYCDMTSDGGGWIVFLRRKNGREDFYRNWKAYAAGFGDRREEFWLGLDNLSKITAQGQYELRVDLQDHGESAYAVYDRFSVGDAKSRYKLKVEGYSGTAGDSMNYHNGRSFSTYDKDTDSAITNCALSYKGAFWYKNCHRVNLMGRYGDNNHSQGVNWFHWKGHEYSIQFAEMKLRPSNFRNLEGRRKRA
The test can be described thus: ELISA (mouse) and HTRF (human) screens of scFv. For orientation: ELISA stands for enzyme-linked immunosorbent assay.

The target of test [2] is T1, mouse TNC rCd4-His-FBG. The test can be described thus: ELISA and HTRF screens of scFv.
Test [3] concerns the target T1, mouse TNC rCd4-His-FBG. The test can be described thus: SPR, BIAcore T100, 25 C, Fab captured, rCd4-FBG injected.
The target of test [4] is T2, rat TNC rCd4-His-FBG (rat) (UniProt P05540).
T2 sequence: T1 sequence with A252T
The test is described as above.

For test [5], the target named is T1, mouse TNC rCd4-His-FBG. The test can be described thus: SPR, 37 C, purified IgG4 captured on anti-human Fc.

This note sets out measurements from patent US20190225680A1 (NASCIENT, published 2019).

Positions count from the first letter of the chain named. These are yes or no findings as the source states them, for the method shown. Some entries that bind do so weakly or less than the wild type. Sequences can lack the tags named with a protein.

B1: 165_13_D1 scFv (scFv, V domains shown)
VH: QVQLVESGGGLVQPGRSLRLSCAASGFTFDDYAMHWVRQAPGKGLEWVSGISGSGGSTYYADSVKGRFTISRDNAKNSLYLQMNSLRAEDTALYYCAKGTRGEGDTFDIWGQGTMVTVSS
VL: DIQMTQSPASLPTPVGDRVTITCRASQYIQGFLNWYQQKPGKAPKLLIYDASNLETGVPSRFSGSGSGTDFTLTISSLQPEDFATYYCQQSYSTPQTFGQGTKVDIK
notes: VH CDR3 GTRGEGDTFDI; not shown: scFv linker, domain order, and the tags of the pSANG10 vector (FLAG and others)
On to B1, for which the binding entry with mouse TNC rCd4-His-FBG [1] and with mouse TNC rCd4-His-FBG [2] was “binds” throughout.

B2: B12 Fab (Fab, V domains shown)
VH: B1 VH with G99D, T100I, R101S, G102A, E103V, G104P
VL: DIQMTQSPASLPTPVGDRVTITCRASQYIQGFLNWYQQKPGKAPKLLIYDASNLETGVPSRFSGSGSGTDFTLTISSLQPEDFATYYCQQSYSTPQTFGQGTKVDIKR
notes: Monomeric Fab from a dual promoter Fab vector; also called B12 parental antibody
As for B2, the binding entry (in the test with mouse TNC rCd4-His-FBG [3]; in test [4]) was “binds” each time.

B3: 165_13_B1 IgG4 (antibody, V domains shown)
VH: B1 VH with G99V, T100M, R101S, G102S, E103M, G104E, T106A
VL: B2 VL
For the molecule B3, the binding result with mouse TNC rCd4-His-FBG [5] is listed as “binds”.

B4: 165_13_D1 IgG4 (antibody, V domains shown)
VH: B1 VH
VL: B2 VL
As for B4, the binding entry in the test with mouse TNC rCd4-His-FBG [5] is “binds”.

B5: 165_13_B1 scFv (scFv, V domains shown)
VH: B1 VH with G99V, T100M, R101S, G102S, E103M, G104E, T106A
VL: B1 VL
notes: VH CDR3 VMSSMEDAFDI; not shown: scFv linker, domain order, and the tags of the pSANG10 vector (FLAG and others)
Take B5: the binding result in the test with mouse TNC rCd4-His-FBG [1] and with mouse TNC rCd4-His-FBG [2] was “binds” in each case.

B6: 165_13_C3 scFv (scFv, V domains shown)
VH: B1 VH with G99S, T100Y, R101Q, G102S, E103D, G104E, T106A
VL: B1 VL
notes: VH CDR3 SYQSDEDAFDI; Antibody C3 of the B12 family; not shown: scFv linker, domain order, and the tags of the pSANG10 vector (FLAG and others)
Regarding B6, the binding entry with mouse TNC rCd4-His-FBG [1] and in the test with mouse TNC rCd4-His-FBG [2] was “binds” each time.

B7: 165_13_D4 scFv (scFv, V domains shown)
VH: B1 VH with R101V
VL: B1 VL
notes: VH CDR3 GTVGEGDTFDI; not shown: scFv linker, domain order, and the tags of the pSANG10 vector (FLAG and others)
As for B7, the binding entry with mouse TNC rCd4-His-FBG [1] and with mouse TNC rCd4-His-FBG [2] was “binds” each time.

B8: 165_13_A4 scFv (scFv, V domains shown)
VH: B1 VH with G99D, T100K, R101Y, G102P, E103V, G104L
VL: B1 VL
notes: VH CDR3 DKYPVLDTFDI; not shown: scFv linker, domain order, and the tags of the pSANG10 vector (FLAG and others)
For the molecule B8, the binding entry with mouse TNC rCd4-His-FBG [1] and in the test with mouse TNC rCd4-His-FBG [2] was “binds” in each case.

B9: 180_11_F5 scFv (scFv, V domains shown, not shown: small tags and cut ends)
VH: B1 VH with G99V, T100M, G102T, E103G, G104L
VL: B1 VL
notes: VH CDR3 VMRTGLDTFDI
On to B9, for which the binding entry in the test with mouse TNC rCd4-His-FBG [1] and with mouse TNC rCd4-His-FBG [2] was “binds” each time.

B10: 165_13_B3 scFv (scFv, V domains shown, not shown: small tags and cut ends)
VH: B1 VH with G99A, T100L, R101A, G102R, E103G, G104H
VL: B1 VL
notes: VH CDR3 ALARGHDTFDI
Turning to B10, the binding result with mouse TNC rCd4-His-FBG [1] and in the test with mouse TNC rCd4-His-FBG [2] was “binds” in each case.

B11: 165_13_B6 scFv (scFv, V domains shown)
VH: B1 VH with T100Q, R101K
VL: B1 VL
notes: VH CDR3 GQKGEGDTFDI; not shown: scFv linker, domain order, and the tags of the pSANG10 vector (FLAG and others)
Consider B11, for which the binding result with mouse TNC rCd4-His-FBG [1] and with mouse TNC rCd4-His-FBG [2] was “binds” in each case.
